Consider nine sequences from patent US5362864, “Trans-activating factor-1” (The Trustees of the Rockefeller University).

The subject of data set [1] is nuclear motif I factor (tobacco leaf nuclear extract) (Nicotiana tabacum). As to the kind of experiment: competition with a labelled probe. The settings on record: protein in an extract.
Data set [2] addresses truncated TAF-1 (p5a product from Met-22) (Nicotiana tabacum) (UniProt Q99142). Description: EMSA. To be noted: protein in a lysate after overexpression.
Data set [3] deals with T1, truncated TAF-1 (35S:5a partial cDNA) (Nicotiana tabacum) (UniProt Q99142).
T1 sequence: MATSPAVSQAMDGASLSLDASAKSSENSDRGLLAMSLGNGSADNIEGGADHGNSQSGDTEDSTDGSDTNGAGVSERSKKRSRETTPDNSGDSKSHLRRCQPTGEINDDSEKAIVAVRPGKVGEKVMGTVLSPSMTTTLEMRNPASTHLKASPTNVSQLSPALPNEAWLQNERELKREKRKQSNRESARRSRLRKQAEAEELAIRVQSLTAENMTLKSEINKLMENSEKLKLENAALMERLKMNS
As to the kind of experiment: activity in cells. To be noted: -ABA, vector control 550, protein details: 35S promoter effector plasmid in pMON505, variant of motif I WT tetramer, only the site is given, counted as no effect.

Where [4] appears, read: about same as truncated TAF-1, variant of motif I WT tetramer.

For part of these data: Results from cells or extracts need not show a direct contact. For part of these data: Negatives hold for the conditions tested. For part of these data: The comparison behind a weaker result is the experiment's own reference, which may not be listed here. For part of these data: Tags and fusion partners may be left off the protein sequences shown. For part of these data: The exact form of at least one protein or probe is not confirmed.

For “GCCACGTGGCGCCACGTGGCGCCACGTGGCGCCACGTGGC (double strand) [PA perfect palindrome (G-box) tetramer]”, the binding result in data set [1] (high-affinity binding) is given as “binds”. On to “GTACCAGGCGGTACCAGGCGGTACCAGGCGGTACCAGGCG (double strand) [M3 tetramer]”, for which the binding result in data set [2] (variant of motif I WT tetramer) and in data set [1] (setting [4]) was “no binding” each time. As to “TGACTGTTCTTGACTGTTCTTGACTGTTCTTGACTGTTCT (double strand) [motif I mutant tetramer (MU)]”, the binding result was “no binding” in data set [2] (no specific complexes, variant of motif I WT tetramer) and “no binding” in data set [1] (no competition at 300-fold molar excess, variant of motif I WT tetramer). The same sequence displayed an activity on this sequence (pmol MU/mg protein/min) in data set [3] of 515. Take “GTTGGTGGCGGTTGGTGGCGGTTGGTGGCGGTTGGTGGCG (double strand) [M2 tetramer]”: the binding result in data set [2] (variant of motif I WT tetramer) and in data set [1] (setting [4]) was “no binding” in each case.

Consider “GTACGTCCCGGTACGTCCCGGTACGTCCCGGTACGTCCCG (double strand) [M4 tetramer]”, for which the binding result in data set [2] (variant of motif I WT tetramer) and in data set [1] (setting [4]) was “no binding” in each case. Consider “TTCGGCCACGTCACCAATCCGTTCGGCCACGTCACCAATCCGTTCGGCCACGTCACCAATCCGTTCGGCCACGTCACCAATCCG (double strand) [wheat histone H3 hex tetramer (4H1)]”, for which, in data set [2], the binding result is listed as “binds”. In the case of “GTACGTGGCGGTACGTGGCGGTACGTGGCGGTACGTGGCG (double strand) [motif I WT tetramer]”, the binding result in data set [1] (competes complex I at 300-fold molar excess, label: fill-in labelled) is reported as “binds”. Regarding “GTACGTGGGCGTACGTGGGCGTACGTGGGCGTACGTGGGC (double strand) [M5 tetramer]”, the binding result is given as “binds more weakly” in data set [2] (severely reduced binding, slightly less effective competitor than WT, variant of motif I WT tetramer) and “binds more weakly” in data set [1] (setting [4]). On to “CAACGTGGCGCAACGTGGCGCAACGTGGCGCAACGTGGCG (double strand) [M1 tetramer]”, for which, in data set [1] (setting [4]), the binding result is listed as “binds”.
